Experimental data published in EP0329295A1 (THE UPJOHN COMPANY, priority 1988, dated 1989).
Some peptides are written in HELM: one residue between dots, names in brackets for other building blocks, links after the first $.

Experiment: general procedure: solution-phase peptide synthesis; diethylphosphoryl cyanide / triethylamine
[1] = late stage modification step, TLC

Substance: PEPTIDE1{[DGLU-CO].P.F.[NMHis].[LVA].I.[AMP]}$$$$V2.0
- crude purity (method not given) [1]: >95% pure by TLC

Substance: N-[[[2-Hydroxy-1,1-bis(hydroxymethyl)ethyl]-amino]carbonyl]-Pro-Phe-N(Me)His-LVA-Ile-AMP, pyridine N-oxide
- final HPLC purity (late stage modification step, Waters C18 column): 99.36%

Substance: L-Histidinamide, 1-[[(2-deoxy-L-glucitol-2-yl)amino]carbonyl]-L-prolyl-L-phenylalanyl-N-[2-hydroxy-5-methyl-1-(2-methylpropyl)-4-[[[2-methyl-1-[[(2-pyridinylmethyl)amino]carbonyl]butyl]amino]-carbonyl]hexyl]-N.alpha.-methyl-, N-oxide.
- difficulty met (late stage modification step): Attempted chromatographic purification of this material on silica gel was unsuccessful.

Substance: N-[Glucaminocarbonyl]-Pro-Phe-N[CH3]-His-LVA-Ile-AMP
- final HPLC purity [1]: .96%

Substance: H-Pro-Phe-N(Me)His-LVA-Ile-AMP
- crude purity (method not given) [1]: 95-97% pure by TLC

Substance: N-[2,3,4,5-Tetrahydroxypentyl]-Pro-Phe-N[CH3]-His-LVA-Ile-AMP
- final HPLC purity (conjugation step, TLC): 93%
